Experimental data published in the supplement of paper PMC9925115.
± gives the uncertainty stated by the source. Only a part is listed here, and it is no random draw.

Each compound was assayed on FLX1 (assay: cell viability z-score within plate (CellTiter-Glo), mean of 3 biological replicates; higher = higher viability relative to plate (less growth inhibition)). Details: 2 µM; time (hr): 120.
Method: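 FLX1 fibrolamellar carcinoma cells (DNAJB1-PRKACA fusion), 600 cells/well in 384-well plates, treated with a Selleck kinase inhibitor library (L1200) at 2 uM for 5 days (120 hr); viability by CellTiter-Glo. A z-score was computed within each plate and averaged over three biological replicates.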

SMILES | cell viability z-score within plate
Cc1ccccc1-n1c(Cn2nc(-c3cccc(O)c3)c3c(N)ncnc32)nc2cccc(C)c2c1=O | -1.67 ± 0.24
Cc1nc2c(-c3cnc(N)nc3)nc(N3CCOCC3)nc2n1C(C)C | 0.31 ± 0.58
